Results reported in article PMC9681084, “MYB44-ENAP1/2 restricts HDT4 to regulate drought tolerance in Arabidopsis” (PLOS Genetics, 2022).
These are yes or no findings as the source states them, for the method shown. For some of these results: Binding seen in cells or lysates may run through a third protein. Some entries that bind do so weakly or less than the wild type. Tags and fused reporters may be left off the sequences shown. Blank lines part the entries; values can stand above or below the molecule they belong to.

Protein sequences, listed by entry. Tags and fused reporters are not part of them.
UniProt Q9FDW1: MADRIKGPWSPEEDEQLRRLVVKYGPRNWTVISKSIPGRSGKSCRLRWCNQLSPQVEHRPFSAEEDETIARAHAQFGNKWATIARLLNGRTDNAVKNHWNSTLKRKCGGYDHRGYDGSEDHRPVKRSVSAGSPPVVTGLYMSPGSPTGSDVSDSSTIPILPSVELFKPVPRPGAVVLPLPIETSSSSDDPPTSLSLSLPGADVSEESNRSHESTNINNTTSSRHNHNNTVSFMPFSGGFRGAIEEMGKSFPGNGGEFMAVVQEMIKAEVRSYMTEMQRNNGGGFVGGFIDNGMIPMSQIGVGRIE

Columns and labels:
[1] = target: T1, ENAP1-YFP-HA (Arabidopsis) (UniProt Q8VZI9); experiment: co-IP; transgenic Arabidopsis expressing MYB44-3xMyc and ENAP1/2-YFP-HA; leaves of three-week plants untreated (Control) or air-dried 4 h (Dehydration); GFP-Trap, 4°C 2 h, empty trap (IgG) as control; anti-Myc and anti-HA blots
T1 sequence: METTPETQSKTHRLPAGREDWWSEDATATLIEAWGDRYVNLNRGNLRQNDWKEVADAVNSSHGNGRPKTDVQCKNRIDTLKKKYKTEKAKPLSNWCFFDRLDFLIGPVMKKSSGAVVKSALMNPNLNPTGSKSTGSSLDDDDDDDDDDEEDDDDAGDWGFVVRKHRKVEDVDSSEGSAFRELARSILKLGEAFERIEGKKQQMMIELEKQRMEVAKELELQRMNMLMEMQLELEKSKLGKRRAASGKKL

[2] = target: MYB44 in pDEST-GWVYNE (BiFC construct) (Arabidopsis) (UniProt Q9FDW1); experiment: split reporter; BiFC in tobacco leaves, Agrobacterium co-infiltration with p19; fluorescence by confocal microscopy two days after infiltration
[3] = target: MYB44-mCherry-FLAG (Arabidopsis) (UniProt Q9FDW1); experiment: co-IP; tobacco leaves co-expressing VYCE-HA-HDT4 and MYB44-mCherry-FLAG; half leaf untreated (D0), half air dried 4 h (D4); DYKDDDDK Fab-Trap, 4°C 2 h, empty trap as control; anti-FLAG and anti-HA blots
[4] = target: MYB44 full length protein, BD fusion (Arabidopsis) (UniProt Q9FDW1); experiment: two-hybrid; AD (pEXPAD502) and BD (pDBLeu) vector pairs co-transformed to yeast strain AH109; growth on SD/-Trp-Leu-His with 3'AT

binding [1]: binds
Molecule: MYB44-3xMyc (from UniProt Q9FDW1 1-305)

binding [2]: binds
binding [3]: binds
B1: His-HDT4 (enzyme, Arabidopsis, UniProt Q9M4T3 1-203, looked up)
chain: MEFWGIEIKPGKPFKVIQKDGFMVHASQVTLGDVEKVKKDETFAVYVKIGDDENGFMIGNLSQKFPQFSIDLYLGHEFEISHNSTSSVYLIGYRTFDAFDELDEEIDSDSELDEYMEQQIAALPQNEINPEEDDESDSDEMGLDEDDDSSDEEDVEAEAPLKVAPPSKKMPNGAFEIAKGGKKNKSSGGKKRCPFPCGPSCKK
notes: HDT4, histone deacetylase of the HD2 family, Arabidopsis; the CDS ligated to pET28a; source: E. coli, purified (Ni-NTA agarose resin)

binding [4]: binds
B2: MBP-ENAP1 (natural protein, Arabidopsis, UniProt Q8VZI9 1-249, looked up)
chain: T1 sequence
notes: ENAP1, Arabidopsis, AT3G11100; the CDS ligated to pVP13 (His tag removed); source: E. coli, purified (Amylose resin)
